# Measured values taken from PubChem BioAssay AID1347075 (National Center for Advancing Translational Sciences (NCATS), 2019).
# “And” between values parts separate entries of the source, which are not always exact repeats. Equal entries are not always repeated. Screen size: about 400,000 compounds; about 5,500 (1.4%) were called active. The shares of active, inactive and inconclusive entries below differ from those in the screen. The call rests on the fitted dose curve; in most records, active means well fitted cell-killing curve with a large enough effect; inconclusive means small, poorly fitted or top-dose-only effect, or effect the other way; inactive means flat fitted curve, though single readings scatter. Potencies of inconclusive entries are doubtful fits and often do not repeat.
# Test: qHTS assay for MDR1-selective chemotherapeutics: Primary screen using the parental adenocarcinoma cell KB-3-1; further: nearly all actives have a fitted effect of over 60% in size
# Conditions: KB-3-1 viability, CellTiter-Glo ATP luminescence, 72 h; activity change, negative = cytotoxic: at 46.1 µM (top of the series)
# How it was run: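 KB-3-1 parental drug-naive adenocarcinoma cells in DMEM/10% FBS, incubated 72 h at 37 C with pin-transferred compounds across a concentration series. Viability by CellTiter-Glo luminescence; concentration-response curves fitted after normalization.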
# On the % scale 0 is the no-effect control and ±100 the full control effect; potency means the concentration at half of the fitted maximal effect.
SMILES,Potency,"activity change, negative = cytotoxic"
O=C(CNC(=O)OCc1ccccc1)Nc1ccc(Br)cc1C(=O)c1ccccc1,"inconclusive: 18.4 µM [cytotoxic, single point]",–
O=C(c1ccc2c(c1)N(Cc1ccc(F)cc1)CCS2)N1CCC2(CC1)OCCO2,–,inactive: -17.8%
COc1ccc(-c2nc(CN3C(=O)CN=C(c4ccccc4Cl)c4cc(Cl)ccc43)c(C)o2)cc1OC,"inconclusive: 16.4 µM [cytotoxic, single point]",–
CCOC(=O)[C@]12Cc3ccccc3[C@H]1N(CCC(=O)OC)C(=O)c1cc(OC)ccc12,"inconclusive: 13 µM [cytotoxic, partial curve, poor fit]",–
CN1C(=O)N(C)C(=O)C2(Cc3c(nc4ccccn4c3=O)N3CCc4ccccc4C32)C1=O (configuration not stated),–,inactive: 1.6%
Cc1cccc(N2C(=O)NC(=O)/C(=C\C=C\c3ccco3)C2=O)c1,"inconclusive: 18.4 µM [cytotoxic, partial curve, poor fit]",–
O=C1CN=C(c2cccs2)c2c(sc3c2CCCC3)N1,"inconclusive: 29.1 µM [cytotoxic, single point]",–
CCOc1cc(CNCCc2c[nH]c3ccccc23)cc(Cl)c1OC,"inconclusive: 29.1 µM [cytotoxic, single point]",–
CC(C)CCNC(=O)c1c(N)n(Cc2ccc3c(c2)OCO3)c2nc3ccccc3nc12,–,inactive: 1.04%
CCOC(=O)C1(c2ccccc2)CCN(CCC(=O)Nc2cccc(Br)c2)CC1,"inconclusive: 20.6 µM [cytotoxic, single point]",–
C1=C(c2c[nH]c3ccccc23)CCN(Cc2ccccc2)C1,"inconclusive: 3.26 µM [cytotoxic, full curve, poor fit]",–
C[C@]12CC[C@H]3[C@@H](CCC4=CC(=O)CC[C@@]43C)[C@@H]1CC[C@@H]2O,active: 13 µM and active: 10.3 µM,–
CC12CCC(=O)C=C1C=CC1C2CCC2(C)C(O)CCC12 (configuration not stated),active: 8.2 µM,–
COC(=O)C1=C(c2ccc(-c3ccccc3)c(F)c2)C[C@@H]2CC[C@H]1N2C(=O)NC1CCCCC1,"inconclusive: 23.1 µM [cytotoxic, single point]",–
COc1ccc(CCNCc2ccncc2)cc1OC,"inconclusive: 20.6 µM [rising, single point]",–
C[n+]1c(-c2ccccc2)c2cc(N)ccc2c2ccc(N)cc21,active: 2.91 µM,–
O=c1c2ccccc2[se]n1-c1ccccc1,"inconclusive: 20.6 µM [cytotoxic, single point]",–
C[C@@H]([C@@H](O)c1ccccc1)N(C)C(=O)Cc1ccccc1,"inconclusive: 8.2 µM [rising, partial curve, poor fit]",–
CC1CC(C)(O)CC(C(O)CC2CC(=O)NC(=O)C2)C1=O (configuration not stated),active: 0.92 µM,–
CSc1ccc(CN2CCN(c3ccccc3C)CC2)cc1,–,inactive: -13.8%
CC(=O)Nc1ccc(OC(=O)N(C)c2ccccc2)cc1,–,inactive: 9.45%
CCN(CC)CCN=Cc1c(O)n(Cc2ccccc2)c(=O)[nH]c1=O,inactive,–
Cc1nc2cc(OC(=O)N(C)Cc3cccc(-c4ccncc4)c3)ccc2s1,"inconclusive: 29.1 µM [cytotoxic, single point]",–

# Record cards (already shown). Values in the order: Potency	activity change, negative = cytotoxic
# O=c1c2ccccc2[se]n1-c1ccccc1 as listed: inconclusive: 20.6 µM [cytotoxic, single point]	–
# O=C(CNC(=O)OCc1ccccc1)Nc1ccc(Br)cc1C(=O)c1ccccc1 as listed: inconclusive: 18.4 µM [cytotoxic, single point]	–

# Further entries follow.

SMILES,Potency,"activity change, negative = cytotoxic"
COc1ccc(-n2nnnc2C(c2cccs2)N2CCC(n3c(=O)[nH]c4ccccc43)CC2)cc1 (configuration not stated),"inconclusive: 29.1 µM [cytotoxic, single point]",–
C=CCN1C(=O)/C(=C/c2ccc3c(c2)CCCN3CCC)C(=O)NC1=S,"inconclusive: 20.6 µM [cytotoxic, single point]",–
C[C@H](CO)N1C[C@H](C)[C@H](CN(C)C(=O)Oc2cccc3ccccc23)OCc2cnnn2CCCC1=O,–,inactive: 1.59%
CC(C)C1CN1CC(O)Cn1ccnc1[N+](=O)[O-] (configuration not stated),–,inactive: -0.886%
Cc1oc(-c2ccccc2)nc1CN1C(=O)C(C)N=C(c2ccccc2F)c2cc(Cl)ccc21 (configuration not stated),–,inactive: -17.4%
CC(=O)C1C(N2CC2)CC2C3CCC4=CC(=O)CCC4(C)C3CCC21C (configuration not stated),"inconclusive: 29.1 µM [cytotoxic, single point]",–
CC1CCCC(NC(=O)CNC(=S)N2CC3CC(C2)c2cccc(=O)n2C3)C1C (configuration not stated),–,inactive: -1.58%
C[C@@H]1O[C@@H](O[C@@H]2C=C3CC[C@@H]4[C@@H](CC[C@]5(C)[C@H](c6ccc(=O)oc6)CC[C@@]45O)[C@@]3(C)CC2)[C@H](O)[C@H](O)[C@H]1O,active: 0.0116 µM,–
CN1C(=O)C(Cc2ccsc2)C(=O)N(C)C1=O,–,inactive: 0.481%
CC1(C)N([O])C(c2ccc(C(=O)O)cc2)=[N+]([O-])C1(C)C,"inconclusive: 20.6 µM [rising, partial curve, poor fit]",–
CC(=O)OC(C)(C)/C=C/C(=O)[C@](C)(O)C1[C@H](O)C[C@@]2(C)C3CC=C4C(C[C@H](O)C(=O)C4(C)C)[C@]3(C)C(=O)C[C@]12C (some centres not stated),active: 0.0366 µM,–
COc1ccc(CN2CCN(C(=O)COc3ccc4ccccc4c3)CC2)c(OC)c1,"inconclusive: 18.4 µM [cytotoxic, single point]",–
COC(=O)C1=C(c2ccc(S(C)(=O)=O)cc2)C[C@@H]2CC[C@H]1N2C(=O)N1CCC(O)CC1,–,inactive: 15.2%
CCCCCCC(=O)N/N=C/c1c(O)n(CCc2ccccc2)c(=O)[nH]c1=O,"inconclusive: 29.1 µM [cytotoxic, single point]",–
N#CC(C#N)=Cc1ccc(O)c(O)c1,"inconclusive: 0.231 µM [cytotoxic, full curve, poor fit]",–
COCCCn1c(N)c(C(=O)NCCC(C)C)c2nc3ccccc3nc21,"inconclusive: 16.4 µM [cytotoxic, single point]",–
COc1ccc(C(c2nnnn2-c2c(C)cccc2C)N2CCC3(CC2)C(=O)NCN3c2ccccc2)cc1 (configuration not stated),"inconclusive: 29.1 µM [cytotoxic, single point]",–
COc1ccc(NC2Oc3cc4c(cc3C(c3cc(OC)c(OC)c(OC)c3)C2C)OCO4)cc1 (configuration not stated),active: 1.64 µM,–
COc1cc(/C=C/c2nc3ccccc3c(=O)n2-c2ccc(O)cc2)ccc1O,"inconclusive: 18.4 µM [cytotoxic, single point]",–
O=C(Cc1c[nH]c2ccccc12)NNCc1ccc(N(CCCl)CCCl)cc1,"inconclusive: 14.6 µM [cytotoxic, partial curve, poor fit]",–
COc1ccccc1OP(=O)(Nc1cccnc1)Oc1ccccc1OC,"inconclusive: 20.6 µM [cytotoxic, single point]",–
CC(=O)c1cn(Cc2ccccc2F)c2ccccc12,"inconclusive: 20.6 µM [cytotoxic, single point]",–
CCC(=O)OC1(Cc2ccc(CC)cc2)CC(C)N(C)CC1C (configuration not stated),–,inactive: -1.13%

SMILES,Potency,"activity change, negative = cytotoxic"
COc1ccc(CC2C(=O)NC(C)C(=O)N(C)C3C(=O)N(C)C(Cc4ccc(O)c(c4)Oc4ccc(cc4)C3O)C(=O)NC(C)C(=O)NC(C)C(=O)N2C)cc1 (configuration not stated),active: 0.164 µM,–
Cc1cc(N(CCCl)CCCl)ccc1/C=N/NC(=O)c1ccco1,"inconclusive: 20.6 µM [cytotoxic, single point]",–
Cn1cccc1/C=C1\C(=O)NC(=O)N(Cc2ccccc2)C1=O,"inconclusive: 7.31 µM [cytotoxic, partial curve]",–
COC(=O)C1=C(c2ccc(F)cc2OCc2ccccc2)C[C@@H]2CC[C@H]1N2C(=O)N1CCCCC1,"inconclusive: 29.1 µM [cytotoxic, single point]",–
CCCCCCn1c(=O)c(C(=O)Nc2ncccc2O)c(O)c2ccccc21,active: 7.31 µM,–
CCCCn1c(O)c(C(CC)=NCc2ccc(F)cc2)c(=O)[nH]c1=O,"inconclusive: 29.1 µM [cytotoxic, single point]",–
CC(C)OC(=O)c1c(N)n(CC2CCCO2)c2nc3ccccc3nc12 (configuration not stated),–,inactive: 11%
CC1CC2C(C(O)CC3(C)C(O)CCC23)C2(C)CCC(=O)C=C12 (configuration not stated),active: 11.6 µM,–
CCOC(=O)C1CCN(C(C)C(=O)c2c[nH]c3ccccc23)CC1 (configuration not stated),"inconclusive: 13 µM [cytotoxic, partial curve, poor fit]",–
CCCCCSc1cc(OC)c(CCN)cc1OC,active: 20.6 µM,–
CC1CCCC(C2(O)C(=O)Nc3ccccc32)C1=O (configuration not stated),–,inconclusive: -30.2% [cytotoxic]
CN1/C(=C\C=C2C(=O)NC(=O)NC2=O)C(C)(C)c2ccccc21,active: 5.17 µM,–
C[C@H]1[C@@H](OS(=O)(=O)O)C[C@@H]2C[C@H]([C@@H](O)c3cc(=O)[nH]c(=O)[nH]3)NC3=NC[C@H]1N32,active: 1.03 µM,–
CC(=O)OC1C(=O)OCC23CCC4(C)OC4C2OC2CC(OC(=O)C=CC=CC(=O)OCCC1C)C3(C)C21CO1 (configuration not stated),active: 0.184 µM,–
CC1=CC2OC3CC4OC(=O)C=CC=CC(C(C)O)OCC(O)C5(C)OC5C(=O)OCC2(CC1O)C4(C)C31CO1 (configuration not stated),active: 0.0146 µM,–
O=C(c1ccc(F)c([N+](=O)[O-])c1)N1CC2CC(C1)c1cccc(=O)n1C2 (configuration not stated),–,inactive: -0.0209%
O=c1[nH]c2ccccc2n1C1CCN(C(CCc2ccccc2)c2nnnn2C2CCCC2)CC1 (configuration not stated),"inconclusive: 29.1 µM [cytotoxic, single point]",–
CCn1c(NN=O)nc2ccccc21,"inconclusive: 20.6 µM [cytotoxic, partial curve, poor fit]",–
CCc1nn(CC(=O)N2CCC3(CC2)OCCO3)c(=O)c2cc3ccccc3n12,"inconclusive: 29.1 µM [rising, single point]",–
COC(=O)C1=C(c2cc3ccccc3o2)C[C@@H]2CC[C@H]1N2C(=O)NCc1ccc(F)cc1,"inconclusive: 20.6 µM [cytotoxic, partial curve, poor fit]",–
